The assay deals with T1, C. elegans DROSHA (C. elegans) (UniProt O01326).
T1 sequence: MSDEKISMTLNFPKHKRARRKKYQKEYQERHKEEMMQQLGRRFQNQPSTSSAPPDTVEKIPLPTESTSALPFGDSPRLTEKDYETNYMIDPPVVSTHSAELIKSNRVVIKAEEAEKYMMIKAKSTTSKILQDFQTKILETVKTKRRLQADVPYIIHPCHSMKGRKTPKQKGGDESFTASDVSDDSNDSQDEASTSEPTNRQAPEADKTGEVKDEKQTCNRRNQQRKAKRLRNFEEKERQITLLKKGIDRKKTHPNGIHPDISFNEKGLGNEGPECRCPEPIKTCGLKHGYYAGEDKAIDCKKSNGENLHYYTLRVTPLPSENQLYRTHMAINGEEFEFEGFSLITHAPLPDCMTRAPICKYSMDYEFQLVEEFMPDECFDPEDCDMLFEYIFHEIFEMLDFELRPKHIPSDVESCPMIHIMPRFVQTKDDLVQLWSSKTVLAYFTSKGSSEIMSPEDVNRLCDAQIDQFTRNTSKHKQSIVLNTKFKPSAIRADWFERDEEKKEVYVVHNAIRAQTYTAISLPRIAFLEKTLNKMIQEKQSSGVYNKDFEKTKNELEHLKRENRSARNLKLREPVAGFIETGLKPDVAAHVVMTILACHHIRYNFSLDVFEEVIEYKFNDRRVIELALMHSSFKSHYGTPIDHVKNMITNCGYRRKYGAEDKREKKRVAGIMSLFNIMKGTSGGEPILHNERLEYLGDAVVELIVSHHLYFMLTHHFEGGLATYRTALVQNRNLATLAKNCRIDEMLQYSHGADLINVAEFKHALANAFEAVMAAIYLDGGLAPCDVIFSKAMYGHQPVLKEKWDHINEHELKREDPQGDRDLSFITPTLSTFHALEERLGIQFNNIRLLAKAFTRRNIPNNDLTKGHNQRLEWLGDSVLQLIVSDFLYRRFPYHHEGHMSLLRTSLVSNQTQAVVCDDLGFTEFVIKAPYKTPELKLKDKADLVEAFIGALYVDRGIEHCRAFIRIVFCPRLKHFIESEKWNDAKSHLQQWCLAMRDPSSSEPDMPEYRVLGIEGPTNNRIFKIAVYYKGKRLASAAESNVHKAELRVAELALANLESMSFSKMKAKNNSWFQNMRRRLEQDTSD
The assay is described as follows: tandem affinity co-purification (Ni-NTA, then IgG sepharose); both proteins co-expressed in HEK293E; lysate in T500 (20 mM Tris-HCl pH 7.5, 500 mM NaCl, 4 mM beta-mercaptoethanol) with 2 ug/ml RNase A; Ni-NTA (His tag on the DGCR8 ortholog), washes with 0 and 2000 mM NaCl and 50 mM imidazole, eluted with 300 mM imidazole; eluate bound to IgG sepharose (protein G on DROSHA) at 4 °C for 4 h.

Results are given in words; binding and its absence hold for the method and conditions named. Binding seen in cells or lysates may run through a third protein. A result given as binding can be weak or reduced; the word gives no strength.

As to C. elegans PASH-1, the binding entry is “binds”.
